Test results as given in PMC368434 (BMC Gastroenterology, 2004).

Tested on: rabbit gastric parietal cells
Experiment: Acid accumulation assay
Format: cell-based
Settings: up to concentrations of 10^-4 M (data not shown)

## COc1ccc2cc([C@H](C)C(=O)O)ccc2c1 [naproxen]
  Effect on acid accumulation by isolated rabbit parietal cells: no effect
